# In all, about 580,000 compounds went through this assay and about 6,100 (1.1%) were called active. All entries are inconclusive by the source's own rule. Clear calls are listed elsewhere. Calls follow the shape of the dose curve; as a rule, active = well fitted inhibition curve with a large enough effect; inconclusive = small, poorly fitted or top-dose-only effect, or another doubt; inactive = no such curve, though single readings can be large or run the other way.
# By UniProt entry, the sequences of proteins in these tests, tags left out.
# UniProt P18054, whole entry: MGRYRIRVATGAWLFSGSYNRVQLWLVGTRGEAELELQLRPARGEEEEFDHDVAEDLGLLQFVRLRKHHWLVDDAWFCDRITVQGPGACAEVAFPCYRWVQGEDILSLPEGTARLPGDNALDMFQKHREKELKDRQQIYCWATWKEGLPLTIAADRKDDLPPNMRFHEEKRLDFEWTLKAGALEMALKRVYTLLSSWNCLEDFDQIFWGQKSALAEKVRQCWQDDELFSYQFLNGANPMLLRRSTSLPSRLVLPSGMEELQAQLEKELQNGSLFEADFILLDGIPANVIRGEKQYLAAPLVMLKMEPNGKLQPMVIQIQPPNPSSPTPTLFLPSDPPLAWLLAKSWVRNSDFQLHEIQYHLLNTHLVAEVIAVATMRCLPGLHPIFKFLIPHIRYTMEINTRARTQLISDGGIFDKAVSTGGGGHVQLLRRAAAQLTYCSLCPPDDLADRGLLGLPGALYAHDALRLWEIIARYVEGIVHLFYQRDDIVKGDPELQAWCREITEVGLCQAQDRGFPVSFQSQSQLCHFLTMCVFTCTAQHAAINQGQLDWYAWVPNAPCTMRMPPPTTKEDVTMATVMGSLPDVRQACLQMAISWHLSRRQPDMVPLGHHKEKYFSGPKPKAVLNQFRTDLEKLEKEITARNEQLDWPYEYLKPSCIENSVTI
# Molecular target: Polyunsaturated fatty acid lipoxygenase ALOX12 (Homo sapiens) (UniProt P18054)
# Assay: Primary qHTS assay for inhibitors of human arachidonate 12S-lipoxygenase (ALOX12): Round 2
# Settings: purified 12hLO, xylenol orange hydroperoxide absorbance
# Text: Assay Provider: Theodore R. Holman Ph.D. University of California, Santa Cruz, California Human lipoxygenase 12hLO is a member of the closely related lipoxygenase family of enzymes which catalyze the site-specific oxidation of arachidonic acid to various hormone precursor molecules and as such is a candidate for drug development in a variety of disease areas, such as cancer and inflammation. Inhibition of 12hLO activity was screened by utilizing arachidonic acid as a substrate. The extent of hydroperoxide product formation was measured by a secondary chromogenic reaction in which xylenol orange (XO, Sigma-Aldrich, cat. number 39,818-7) reacts with the ferric ions produced from the reaction between the hydroperoxide and ferrous ions. The Fe (III)-XO complex is characterized with red-shifted absorbance at 560 nm. […]
# PROTOCOL TABLE SEQUENCE No. (e.g., 1, 2, 3, etc.); […] […] 7; Incubation; 30 min; room temperature 8; Detector; absorbance; Read 1 at 405 nm absorbance using ViewLux (Perkin-Elmer) CCD imager. 9; Detector; absorbance; Read 2 at 573 nm absorbance using ViewLux (Perkin-Elmer) CCD imager. […] 8, 9; Two absorbance readouts were obtained at 405 nm and at 573 nm using a ViewLux high-throughput CCD plate imager (Perkin-Elmer). The 573 to 405 (Read 2 / Read 1) absorbance ratio was used to compute reaction progress.
# Potency is read from the fitted curve at half-maximal effect.
row,Structure (SMILES),Potency
1,Cc1cc([N+](=O)[O-])cc([N+](=O)[O-])c1O,inconclusive: 32.9 µM

# Source: PubChem BioAssay AID1671190 (National Center for Advancing Translational Sciences (NCATS), 2021)
